Data taken from PMC11302875.

By UniProt entry, the sequences of proteins in these tests, tags left out.
UniProt Q99814: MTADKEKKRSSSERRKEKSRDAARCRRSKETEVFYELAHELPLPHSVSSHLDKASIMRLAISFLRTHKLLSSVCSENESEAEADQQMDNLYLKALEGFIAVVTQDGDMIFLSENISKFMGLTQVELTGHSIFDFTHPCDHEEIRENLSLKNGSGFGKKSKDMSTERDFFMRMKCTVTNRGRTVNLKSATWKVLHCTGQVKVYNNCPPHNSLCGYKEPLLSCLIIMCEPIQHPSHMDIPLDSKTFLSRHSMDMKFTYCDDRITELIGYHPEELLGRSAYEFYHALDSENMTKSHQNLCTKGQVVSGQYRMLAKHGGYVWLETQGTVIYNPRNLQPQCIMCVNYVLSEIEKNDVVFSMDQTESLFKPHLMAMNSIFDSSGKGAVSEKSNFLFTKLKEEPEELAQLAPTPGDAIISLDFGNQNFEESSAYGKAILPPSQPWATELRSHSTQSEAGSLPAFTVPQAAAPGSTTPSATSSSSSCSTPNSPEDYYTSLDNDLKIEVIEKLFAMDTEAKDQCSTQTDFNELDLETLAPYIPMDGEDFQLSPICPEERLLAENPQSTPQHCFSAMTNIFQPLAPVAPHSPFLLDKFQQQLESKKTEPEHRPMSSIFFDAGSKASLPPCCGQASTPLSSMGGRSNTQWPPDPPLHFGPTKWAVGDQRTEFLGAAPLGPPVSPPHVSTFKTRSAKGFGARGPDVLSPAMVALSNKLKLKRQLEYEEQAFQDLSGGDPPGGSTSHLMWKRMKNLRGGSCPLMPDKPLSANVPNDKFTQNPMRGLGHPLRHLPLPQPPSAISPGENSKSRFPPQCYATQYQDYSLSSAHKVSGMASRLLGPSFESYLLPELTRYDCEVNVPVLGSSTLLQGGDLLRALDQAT

Biological target: T1, NRF2 (human (endogenous in HUVECs)) (UniProt Q16236)
T1 sequence: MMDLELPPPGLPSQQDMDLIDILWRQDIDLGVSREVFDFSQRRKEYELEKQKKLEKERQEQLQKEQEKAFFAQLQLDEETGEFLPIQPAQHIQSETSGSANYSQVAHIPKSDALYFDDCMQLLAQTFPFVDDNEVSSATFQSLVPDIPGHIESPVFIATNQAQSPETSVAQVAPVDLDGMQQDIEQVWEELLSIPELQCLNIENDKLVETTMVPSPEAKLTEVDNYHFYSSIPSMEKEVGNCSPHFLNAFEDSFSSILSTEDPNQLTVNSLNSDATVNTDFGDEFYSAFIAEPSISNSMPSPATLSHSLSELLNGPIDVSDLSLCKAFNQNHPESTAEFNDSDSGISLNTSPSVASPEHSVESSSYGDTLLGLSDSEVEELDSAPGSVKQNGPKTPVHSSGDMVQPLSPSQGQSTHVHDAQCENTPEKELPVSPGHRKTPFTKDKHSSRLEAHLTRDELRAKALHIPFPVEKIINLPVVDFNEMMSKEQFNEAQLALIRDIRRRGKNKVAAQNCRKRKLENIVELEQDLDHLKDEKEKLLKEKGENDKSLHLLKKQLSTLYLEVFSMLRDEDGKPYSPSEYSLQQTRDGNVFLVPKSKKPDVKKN
Assay: affinity purification with mass spectrometry; anti-NRF2 immunoprecipitation from HUVECs at 5 mM and 25 mM glucose, Coomassie Brilliant Blue staining, protein mass spectrometry

For HIF-2α (from UniProt Q99814 1-870), the binding was “binds”.

Results are given in words; binding and its absence hold for the method and conditions named. In cells and extracts the contact can be indirect. A yes stands for co-enrichment or nearness to the bait. Other partners may have been found.
